Experimental findings from patent publication US7939589B2, “Polyhydroxy-diamines as low odor, low VOC multi-functional additives for paints and coatings” (Angus Chemical Company, priority 2009, dated 2011) are described below.

One data set is described as follows: Film yellowing after UV-B exposure. As to conditions: 116 hours at 50° C., UVB-313.
With `CCC(N)(CO)CO` [AEPD, 2-Amino-2-ethyl-1,3-propane-diol, reference compound], the “Film yellowing after 116 hr UV-B exposure (b*, yellownwess)” value is listed as 1.68.
Still for that read-out and setting: under `CC(C)(N)CO` [AMP, 2-Amino-2-methyl-1-propanol, reference compound] stands 1.39.
Same read-out and setting: under `CCCCN(CCO)CCO` [NBDA, N-Butyl-diethanolamine, reference compound] stands 1.64; under `NC1(CNC(CO)(CO)CO)CCCCC1` [TA-ACyHM, 2-((1-aminocyclohexyl)methylamino)-2-(hydroxymethyl)propane-1,3-diol], 1.65; under `CC(C)(N)CNC(CO)(CO)CO` [TA-AMP, 2-(2-Amino-2-methylpropylamino)-2-(hydroxymethyl)propane-1,3-diol], 1.69.

Another data set is described as follows: Blocking resistance (ASTM D 4946). As to conditions: 1 kg weights, 30 minutes @ 50° C.; scale 0 (greatest adhesion) to 10 (least adhesion).
Turning to `CC(C)(N)CO` [AMP, 2-Amino-2-methyl-1-propanol, reference compound], the “Blocking resistance, 1 day cure” value is 5 and the “Blocking resistance, 3 days cure” value amounted to 6.
On to `NC1(CNC(CO)(CO)CO)CCCCC1` [TA-ACyHM, 2-((1-aminocyclohexyl)methylamino)-2-(hydroxymethyl)propane-1,3-diol], for which the “Blocking resistance, 1 day cure” value is recorded as 5/5 and the “Blocking resistance, 3 days cure” value is 5/5.
